No constants are given. Whether binding was seen depends on the method and setting. Binding seen in cells or lysates may run through a third protein. Some entries that bind do so weakly or less than the wild type.
Molecular target: T1, CMKLR1-WT-smBiT (human) (UniProt Q99788)
T1 sequence: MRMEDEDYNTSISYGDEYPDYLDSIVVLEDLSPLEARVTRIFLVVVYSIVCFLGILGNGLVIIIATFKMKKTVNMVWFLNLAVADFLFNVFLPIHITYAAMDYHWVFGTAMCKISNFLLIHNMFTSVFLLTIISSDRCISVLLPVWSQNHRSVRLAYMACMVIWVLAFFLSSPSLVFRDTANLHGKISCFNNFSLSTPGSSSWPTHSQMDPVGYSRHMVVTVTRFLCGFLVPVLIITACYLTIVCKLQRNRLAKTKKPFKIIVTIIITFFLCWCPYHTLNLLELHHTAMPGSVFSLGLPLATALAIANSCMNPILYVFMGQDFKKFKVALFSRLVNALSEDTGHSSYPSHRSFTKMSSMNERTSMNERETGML
Assay: split reporter

Amino acid sequences for entries named in this document (tags omitted).
UniProt P49407: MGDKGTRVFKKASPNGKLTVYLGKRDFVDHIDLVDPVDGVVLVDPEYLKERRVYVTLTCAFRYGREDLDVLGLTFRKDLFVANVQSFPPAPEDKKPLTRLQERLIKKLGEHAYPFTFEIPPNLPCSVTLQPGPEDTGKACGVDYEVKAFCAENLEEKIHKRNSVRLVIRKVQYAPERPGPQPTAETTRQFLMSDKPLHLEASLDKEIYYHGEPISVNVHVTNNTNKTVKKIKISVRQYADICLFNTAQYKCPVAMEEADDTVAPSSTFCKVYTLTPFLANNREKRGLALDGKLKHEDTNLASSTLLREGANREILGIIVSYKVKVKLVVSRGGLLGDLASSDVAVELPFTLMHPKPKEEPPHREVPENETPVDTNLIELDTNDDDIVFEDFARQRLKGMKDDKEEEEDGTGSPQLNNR

## LgBiT-β-Arr1 (from UniProt P49407 1-418)
  binding: binds

From paper doi:10.1101/2023.06.03.543554 (bioRxiv, 2023)
